Measured values reported in paper doi:10.1101/2022.11.03.515106 (bioRxiv, 2022).
Where two headings read alike, the source gives them in different places. These are yes or no findings as the source states them, for the method shown. In cells and extracts the contact can be indirect. Here binding means that the protein was enriched with, or labelled near, the bait; the list need not be complete. A no says only that the protein was not detected with the bait. Sequences can lack the tags named with a protein. Values belong to the molecule of their own block, whether it stands above or below them.

The chains behind the UniProt entries cited, without tags or fusion partners.
UniProt Q9UNP9: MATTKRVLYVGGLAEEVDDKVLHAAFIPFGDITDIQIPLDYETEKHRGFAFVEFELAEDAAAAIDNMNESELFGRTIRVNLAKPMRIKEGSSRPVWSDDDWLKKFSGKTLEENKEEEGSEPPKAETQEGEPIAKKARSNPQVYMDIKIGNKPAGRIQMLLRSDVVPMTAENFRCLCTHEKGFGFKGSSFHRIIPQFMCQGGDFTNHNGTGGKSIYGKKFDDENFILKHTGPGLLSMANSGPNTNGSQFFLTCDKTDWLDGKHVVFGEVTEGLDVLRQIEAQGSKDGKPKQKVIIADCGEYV

Key:
[1] = molecular target: T1, Flag-HA-TTDN1 (human) (UniProt Q8TAP9); assay: affinity purification with mass spectrometry
T1 sequence: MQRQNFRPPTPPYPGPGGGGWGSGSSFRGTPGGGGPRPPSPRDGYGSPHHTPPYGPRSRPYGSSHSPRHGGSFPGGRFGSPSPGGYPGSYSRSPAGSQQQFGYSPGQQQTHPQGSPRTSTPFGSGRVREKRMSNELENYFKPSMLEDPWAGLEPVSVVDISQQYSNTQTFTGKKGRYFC

[2] = molecular target: T1, Flag-HA-TTDN1 (human); assay: affinity purification with mass spectrometry; remark: listed apart in the source

- binding [1]: no binding
Molecule: PPIE (from UniProt Q9UNP9 1-301)

- binding [2]: no binding
B1: ISY1 (protein, UniProt Q9ULR0 1-285)
chain: MARNAEKAMTALARFRQAQLEEGKVKERRPFLASECTELPKAEKWRRQIIGEISKKVAQIQNAGLGEFRIRDLNDEINKLLREKGHWEVRIKELGGPDYGKVGPKMLDHEGKEVPGNRGYKYFGAAKDLPGVRELFEKEPLPPPRKTRAELMKAIDFEYYGYLDEDDGVIVPLEQEYEKKLRAELVEKWKAEREARLARGEKEEEEEEEEEINIYAVTEEESDEEGSQEKGGDDSQQKFIAHVPVPSQQEIEEALVRRKKMELLQKYASETLQAQSEEARRLLGY

- binding [2]: no binding
B2: ZNF830 (protein, UniProt Q96NB3 1-372)
chain: MASSASARTPAGKRVINQEELRRLMKEKQRLSTSRKRIESPFAKYNRLGQLSCALCNTPVKSELLWQTHVLGKQHREKVAELKGAKEASQGSSASSAPHSVKRKAPDADDQDVKRAKATLVPQVQPSTSAWTTNFDKIGKEFIRATPSKPSGLSLLPDYEDEEEEEEEEEGDGERKRGDASKPLSDAQGKEHSVSSSREVTSSVLPNDFFSTNPPKAPIIPHSGSIEKAEIHEKVVERRENTAEALPEGFFDDPEVDARVRKVDAPKDQMDKEWDEFQKAMRQVNTISEAIVAEEDEEGRLDRQIGEIDEQIECYRRVEKLRNRQDEIKNKLKEILTIKELQKKEEENADSDDEGELQDLLSQDWRVKGALL

- binding [2]: binds
B3: endogenous DBR1 (enzyme, UniProt Q9UK59 1-544)
chain: MRVAVAGCCHGELDKIYETLALAERRGPGPVDLLLCCGDFQAVRNEADLRCMAVPPKYRHMQTFYRYYSGEKKAPVLTLFIGGNHEASNHLQELPYGGWVAPNIYYLGLAGVVKYRGVRIGGISGIFKSHDYRKGHFECPPYNSSTIRSIYHVRNIEVYKLKQLKQPIDIFLSHDWPRSIYHYGNKKQLLKTKSFFRQEVENNTLGSPAASELLEHLKPTYWFSAHLHVKFAALMQHQAKDKGQTARATKFLALDKCLPHRDFLQILEIEHDPSAPDYLEYDIEWLTILRATDDLINVTGRLWNMPENNGLHARWDYSATEEGMKEVLEKLNHDLKVPCNFSVTAACYDPSKPQTQMQLIHRINPQTTEFCAQLGIIDINVRLQKSKEEHHVCGEYEEQDDVESNDSGEDQSEYNTDTSALSSINPDEIMLDEEEDEDSIVSAHSGMNTPSVEPSDQASEFSASFSDVRILPGSMIVSSDDTVDSTIDREGKPGGTVESGNGEDLTKVPLKRLSDEHEPEQRKKIKRRNQAIYAAVDDDDDDAA
